Laboratory results reported in patent publication US20170119864A1, “SACCHARIDE VACCINE FORMULATION” (GLAXOSMITHKLINE BIOLOGICALS S.A., priority 2013, published 2017).
At least one peptide structure holds a part that was inferred or is arguable (an end, a ring closure or a residue).

Experiments:
[1] = Visual inspection of MAG-Tn3/CpG7909 formulations; assay type: physicochemical; conditions: 500 μg/dose, without the addition of excipients
[2] = RP-HPLC MAG-Tn3 content before and after 0.2 μm filtration; assay type: physicochemical; conditions: arginine buffer system; allows for 120% limit and 1.25 dilution factor
Description: RP-HPLC was performed to assess MAG-Tn3 content in the formulations before and after filtration with a 0.2 μm syringe filter. A Waters 2996 HPLC equipped with UV detection was used with a Poros R 1/10 column from Applied Biosciences and a 0-100% acetonitrile in 0.1% triflouroacetic acid gradient. Size-exclusion chromatography was performed using a Waters 2996 HPLC equipped with a fluorescence detector (Waters) to assess the aggregation profiles of the resulting formulations using a TSKgel G3000PWxl column (Tosoh Bioscience LLC) and a mobile phase of 200 mM NaCl. SDS-PAGE analysis was done using 4-12% Bis-Tris gels (Invitrogen) and MES running buffer (Invitrogen). The gels were stained using Invitrogen's SilverQuest. Centrifuged and non-centrifuged samples were run on gel to assess the presence of precipitate in the formulations. Centrifugation was performed for 15 minutes at 18 000 g. […]
RP-HPLC was performed to assess MAG-Tn3 content in the formulations before and after filtration with a 0.2 μm syringe filter. […] Size-exclusion chromatography was performed using a Waters 2996 HPLC equipped with a fluorescence detector (Waters) to assess the aggregation profiles of the resulting formulations using a TSKgel G3000PWxl column (Tosoh Bioscience LLC) and a mobile phase of 200 mM NaCl. […]

Structure (SMILES): CC[C@H](C)[C@H](NC(=O)CNC(=O)[C@@H](NC(=O)[C@H](Cc1ccccc1)NC(=O)[C@H](CCCCN)NC(=O)[C@H](CO)NC(=O)[C@H](CC(N)=O)NC(=O)[C@H](C)NC(=O)[C@H](CCCCN)NC(=O)[C@@H](NC(=O)[C@H](Cc1ccc(O)cc1)NC(=O)[C@H](CCC(N)=O)NC(=O)C(NC(=O)C(NC(=O)C(N)CO[C@H]1O[C@H](CO)[C@H](O)[C@H](O)[C@H]1NC(C)=O)C(C)O[C@H]1O[C@H](CO)[C@H](O)[C@H](O)[C@H]1NC(C)=O)C(C)O[C@H]1O[C@H](CO)[C@H](O)[C@H](O)[C@H]1NC(C)=O)[C@@H](C)CC)[C@@H](C)CC)C(=O)N[C@H](C(=O)N[C@@H](CCC(=O)O)C(=O)N[C@@H](CC(C)C)C(=O)NCCCC[C@H](NC(=O)[C@H](CC(C)C)NC(=O)[C@H](CCC(=O)O)NC(=O)[C@@H](NC(=O)[C@@H](NC(=O)CNC(=O)[C@@H](NC(=O)[C@H](Cc1ccccc1)NC(=O)[C@H](CCCCN)NC(=O)[C@H](CO)NC(=O)[C@H](CC(N)=O)NC(=O)[C@H](C)NC(=O)[C@H](CCCCN)NC(=O)[C@@H](NC(=O)[C@H](Cc1ccc(O)cc1)NC(=O)[C@H](CCC(N)=O)NC(=O)C(NC(=O)C(NC(=O)C(N)CO[C@H]1O[C@H](CO)[C@H](O)[C@H](O)[C@H]1NC(C)=O)C(C)O[C@H]1O[C@H](CO)[C@H](O)[C@H](O)[C@H]1NC(C)=O)C(C)O[C@H]1O[C@H](CO)[C@H](O)[C@H](O)[C@H]1NC(C)=O)[C@@H](C)CC)[C@@H](C)CC)[C@@H](C)CC)[C@@H](C)O)C(=O)NCCCC[C@H](NC(=O)[C@H](CCCCNC(=O)[C@H](CC(C)C)NC(=O)[C@H](CCC(=O)O)NC(=O)[C@@H](NC(=O)[C@@H](NC(=O)CNC(=O)[C@@H](NC(=O)[C@H](Cc1ccccc1)NC(=O)[C@H](CCCCN)NC(=O)[C@H](CO)NC(=O)[C@H](CC(N)=O)NC(=O)[C@H](C)NC(=O)[C@H](CCCCN)NC(=O)[C@@H](NC(=O)[C@H](Cc1ccc(O)cc1)NC(=O)[C@H](CCC(N)=O)NC(=O)C(NC(=O)C(NC(=O)C(N)CO[C@H]1O[C@H](CO)[C@H](O)[C@H](O)[C@H]1NC(C)=O)C(C)O[C@H]1O[C@H](CO)[C@H](O)[C@H](O)[C@H]1NC(C)=O)C(C)O[C@H]1O[C@H](CO)[C@H](O)[C@H](O)[C@H]1NC(C)=O)[C@@H](C)CC)[C@@H](C)CC)[C@@H](C)CC)[C@@H](C)O)NC(=O)[C@H](CC(C)C)NC(=O)[C@H](CCC(=O)O)NC(=O)[C@@H](NC(=O)[C@@H](NC(=O)CNC(=O)[C@@H](NC(=O)[C@H](Cc1ccccc1)NC(=O)[C@H](CCCCN)NC(=O)[C@H](CO)NC(=O)[C@H](CC(N)=O)NC(=O)[C@H](C)NC(=O)[C@H](CCCCN)NC(=O)[C@@H](NC(=O)[C@H](Cc1ccc(O)cc1)NC(=O)[C@H](CCC(N)=O)NC(=O)C(NC(=O)C(NC(=O)C(N)CO[C@H]1O[C@H](CO)[C@H](O)[C@H](O)[C@H]1NC(C)=O)C(C)O[C@H]1O[C@H](CO)[C@H](O)[C@H](O)[C@H]1NC(C)=O)C(C)O[C@H]1O[C@H](CO)[C@H](O)[C@H](O)[C@H]1NC(C)=O)[C@@H](C)CC)[C@@H](C)CC)[C@@H](C)CC)[C@@H](C)O)C(=O)NCCC(=O)O)[C@@H](C)O (some centres unmarked) [MAG-Tn3]
- co-precipitation in the presence of CpG7909 [1]: co-precipitates instantaneously
- maximum dose able to be formulated as co-lyophilized product with CpG7909 [2]: 300 µg
